In PubChem BioAssay AID220 (DTP/NCI, 2004) one finds T/C and survivor count data, which are given here for 16 compounds.

The test system of the experiment is CD8F1 mice, subcutaneous mammary adenocarcinoma, T/C%. Put plainly: NCI In Vivo Anticancer Drug Screen. Data for tumor model Mammary Adenocarcinoma CD8F1 (subcutaneous) in CD8F1. Particulars: higher T/C = larger tumour. In short, it runs like this:
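Compound-treated versus vehicle-treated mice with transplantable tumors; survival or tumor size compared as T/C.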

The mark [1] stands for this setting: T/C endpoint: median tumor weight change, dose: 500.0 mg/kg/injection, schedule: Q01DX001 (ip), vehicle: saline.
Setting [2] is: T/C endpoint: median tumor weight change, dose: 1000.0 mg/kg/injection, schedule: Q01DX001 (ip), vehicle: saline.
[3] abbreviates: T/C endpoint: median tumor weight change, dose: 2000.0 mg/kg/injection, schedule: Q01DX001 (ip), vehicle: saline.

The list is a part of this screen's results and no random one: it is rich in T/C values a quarter to a half above the control, in often repeated tests (any T/C) and in doses without a T/C. Further doses and runs are listed elsewhere. T/C: endpoint of the treated group in % of that of the vehicle group. Schedule codes are those of the source, read here as Q, the interval in days (D) or hours (H), X, the number of doses. Some T/C values are followed by the survivors on the day toxicity was checked, most often the fifth; without a count, all were alive then. Some doses have a count of surviving animals in place of a T/C: the source files T/C as zero there, which appears to mark a toxic dose or a test without result, not a measured value. Survivors were counted at the toxicity check, usually on the fifth day, unless a day is given; later deaths do not show. Some entries were tested several times; the values are given in rising order.

Regarding `C[CH2][Sn]([CH2]C)([CH2]C(=O)OC)[CH2]C(=O)OC`, the T/C by setting is: (T/C endpoint: median tumor weight change, dose: 4.0 mg/kg/injection, schedule: Q01DX001 (ip), vehicle: saline with Tween-80, evaluated on day 31) 142 % of control [8 of 10 alive on day 31]; (T/C endpoint: median tumor weight change, dose: 8.0 mg/kg/injection, schedule: Q01DX001 (ip), vehicle: saline with Tween-80, evaluated on day 31) 141 % of control. Besides, the survivor count is 0 of 10 on day 31 (T/C endpoint: median tumor weight change, dose: 32.0 mg/kg/injection, schedule: Q01DX001 (ip), vehicle: saline with Tween-80); 0 of 10 on day 29 (T/C endpoint: median tumor weight change, dose: 62.5 mg/kg/injection, schedule: Q01DX001 (ip), vehicle: saline with Tween-80); 0 of 10 on day 31 (T/C endpoint: median tumor weight change, dose: 64.0 mg/kg/injection, schedule: Q01DX001 (ip), vehicle: saline with Tween-80); 0 of 10 on day 29 (T/C endpoint: median tumor weight change, dose: 125.0 mg/kg/injection, schedule: Q01DX001 (ip), vehicle: saline with Tween-80); 0 of 10 on day 29 (T/C endpoint: median tumor weight change, dose: 250.0 mg/kg/injection, schedule: Q01DX001 (ip), vehicle: saline with Tween-80); 0 of 10 on day 29 (T/C endpoint: median tumor weight change, dose: 500.0 mg/kg/injection, schedule: Q01DX001 (ip), vehicle: saline with Tween-80). Besides, the survivor count (T/C endpoint: median tumor weight change, dose: 1000.0 mg/kg/injection, schedule: Q01DX001 (ip), vehicle: saline with Tween-80) is 0 of 10 on day 29.
Consider `CC(=O)C1=C(O)C2(O)C(=O)c3c(c(C)c4ccc(C)c(O)c4c3O)CC2C(N)C1=O` (stereo not drawn), for which the survivor count is 2 of 10 on day 28 (T/C endpoint: median tumor weight change, dose: 150.0 mg/kg/injection, schedule: Q01DX001 (ip), vehicle: saline + alcohol); 0 of 10 on day 28 and 3 of 10 on day 24 (T/C endpoint: median tumor weight change, dose: 300.0 mg/kg/injection, schedule: Q01DX001 (ip), vehicle: saline + alcohol); 0 of 10 on day 24 and 0 of 10 on day 28 (T/C endpoint: median tumor weight change, dose: 600.0 mg/kg/injection, schedule: Q01DX001 (ip), vehicle: saline + alcohol).
On to `CCCC(=O)Nc1ncnc2c1ncn2C1OC2COP(=O)(O)OC2C1OC(=O)CCC` (stereo not drawn), for which, for the setting “T/C endpoint: mean tumor weight, dose: 100.0 mg/kg/injection, schedule: Q01DX009 (ip), vehicle: saline, evaluated on day 73”, the T/C was 140 % of control.
As for `COc1cc2c(c(OC)c1OC)-c1c(cc3c(c1OC)OCO3)CC(C)C(C)(O)C2OC(=O)c1ccccc1` (stereo not drawn), the T/C runs as follows: (T/C endpoint: median tumor weight change, dose: 62.0 mg/kg/injection, schedule: Q01DX001 (ip), vehicle: saline + Tween-80 + alcohol, evaluated on day 28) 133 % of control; (T/C endpoint: median tumor weight change, dose: 1000.0 mg/kg/injection, schedule: Q01DX001 (ip), vehicle: saline + Tween-80 + alcohol, evaluated on day 28) 135 % of control.
With `CCN=C=NCCCN(C)C`, the survivor count reads like this: (T/C endpoint: median tumor weight change, dose: 62.5 mg/kg/injection, schedule: Q01DX001 (ip), vehicle: saline) 3 of 9 on day 36; (T/C endpoint: median tumor weight change, dose: 125.0 mg/kg/injection, schedule: Q01DX001 (ip), vehicle: saline) 0 of 10 on day 36; (T/C endpoint: median tumor weight change, dose: 250.0 mg/kg/injection, schedule: Q01DX001 (ip), vehicle: saline) 0 of 10 on day 36; under setting [1], 0 of 10 on day 36; under setting [2], 0 of 9 on day 36.
For the compound `C1CN1c1nc(N2CC2)nc(N2CC2)n1`, the survivor count by setting is: (T/C endpoint: median tumor weight (est.), dose: 4.0 mg/kg/injection, schedule: Q07DX005 (ip), vehicle: saline) 0 of 10 on day 30; (T/C endpoint: median tumor weight change, dose: 5.0 mg/kg/injection, schedule: Q01DX001 (ip), vehicle: suspension in saline) 0 of 10 on day 28 and 0 of 10 on day 32; (T/C endpoint: median tumor weight change, dose: 10.0 mg/kg/injection, schedule: Q01DX001 (ip), vehicle: suspension in saline) 0 of 10 on day 32; (T/C endpoint: median tumor weight change, dose: 20.0 mg/kg/injection, schedule: Q01DX001 (ip), vehicle: suspension in saline) 0 of 10 on day 32. Further, the T/C (T/C endpoint: median tumor weight change, dose: 0.62 mg/kg/injection, schedule: Q01DX001 (ip), vehicle: suspension in saline, evaluated on day 28) is 129 % of control.
On to `CCC(=O)O[C@H]1CC[C@H]2[C@@H]3CCC4=CC(=O)CC[C@]4(C)[C@H]3CC[C@]12C`, for which the T/C (T/C endpoint: median tumor weight (est.), dose: 20.0 mg/kg/injection, schedule: Q07DX005 (ip), vehicle: Klucel (hydroxypropylcellulose) (HPC), evaluated on day 30) was 138 % of control; the T/C (T/C endpoint: median tumor weight (est.), dose: 40.0 mg/kg/injection, schedule: Q07DX005 (ip), vehicle: Klucel (hydroxypropylcellulose) (HPC), evaluated on day 30) is 141 % of control [8 of 10 alive on day 30]; the T/C (T/C endpoint: median tumor weight (est.), dose: 80.0 mg/kg/injection, schedule: Q07DX005 (ip), vehicle: Klucel (hydroxypropylcellulose) (HPC), evaluated on day 30) is 126 % of control; the T/C (T/C endpoint: median tumor weight (est.), dose: 320.0 mg/kg/injection, schedule: Q07DX005 (ip), vehicle: Klucel (hydroxypropylcellulose) (HPC), evaluated on day 30) is 135 % of control [9 of 10 alive on day 30].
`C[Si](C)(C)O/C=C1/CCOC1=O`: the T/C (T/C endpoint: median tumor weight change, dose: 250.0 mg/kg/injection, schedule: Q01DX001 (ip), vehicle: saline, evaluated on day 27) was 142 % of control. Moreover, under setting [3], the survivor count was 0 of 10 on day 27.
With `COc1cc(C)c2c(c1C=O)Oc1c(c(C)c(O)c3c1C(O)OC3=O)OC2=O` (stereo not drawn), the T/C is, setting by setting: (T/C endpoint: mean tumor weight, dose: 12.5 mg/kg/injection, schedule: Q07DX005 (ip), vehicle: saline, evaluated on day 42) 146 % of control; (T/C endpoint: median tumor weight (est.), dose: 12.5 mg/kg/injection, schedule: Q07DX005 (ip), vehicle: saline, evaluated on day 33) 134 % of control.
With `CC[C@](O)(C(=O)O)c1cc2n(c(=O)c1CO)Cc1cc3ccccc3nc1-2`, the survivor count reads like this: (T/C endpoint: median tumor weight (est.), dose: 50.0 mg/kg/injection, schedule: Q07DX005 (ip), vehicle: saline) 6 of 10 on day 30; (T/C endpoint: median tumor weight (est.), dose: 100.0 mg/kg/injection, schedule: Q07DX005 (ip), vehicle: saline) 2 of 10 on day 30; (T/C endpoint: median tumor weight (est.), dose: 200.0 mg/kg/injection, schedule: Q07DX005 (ip), vehicle: saline) 1 of 10 on day 30.
`C=CC(=O)NCNC(=O)C=C`: the survivor count by setting is: under setting [1], 0 of 10 on day 31; (T/C endpoint: median tumor weight change, dose: 500.0 mg/kg/injection, schedule: Q01DX001 (ip), vehicle: suspension in saline) 0 of 9 on day 29; (T/C endpoint: median tumor weight change, dose: 574.0 mg/kg/injection, schedule: Q01DX001 (ip), vehicle: saline) 0 of 10 on day 33; under setting [2], 0 of 10 on day 31; (T/C endpoint: median tumor weight change, dose: 1000.0 mg/kg/injection, schedule: Q01DX001 (ip), vehicle: suspension in saline) 0 of 9 on day 29; (T/C endpoint: median tumor weight change, dose: 2000.0 mg/kg/injection, schedule: Q01DX001 (ip), vehicle: suspension in saline) 0 of 9 on day 29.
Turning to `CN1C(=O)CC2(CCN(CCCC(=O)c3ccc(F)cc3)CC2)C1=O`, where the note is “T/C endpoint: median tumor weight (est.), dose: 25.0 mg/kg/injection, schedule: Q07DX005 (ip), vehicle: suspension in saline, evaluated on day 30”, the T/C is 141 % of control.
Take `C[C@]12C=CC(=O)C=C1CC[C@@H]1[C@@H]2C(=O)C[C@@]2(C)[C@H]1CC[C@]2(O)C(=O)CO`: the T/C (T/C endpoint: mean tumor weight, dose: 50.0 mg/kg/injection, schedule: Q01DX009 (ip), vehicle: saline, evaluated on day 28) was 140 % of control [9 of 10 alive]. Besides, the survivor count (T/C endpoint: mean tumor weight, dose: 300.0 mg/kg/injection, schedule: Q07DX005 (ip), vehicle: saline) is 4 of 10.
As to `CC(=O)OCC1OC(n2ncc(=O)[nH]c2=O)C(OC(C)=O)C1OC(C)=O` (stereo not drawn), the T/C (T/C endpoint: median tumor weight change, dose: 2000.0 mg/kg/injection, schedule: Q01DX001 (ip), vehicle: saline, evaluated on day 36) is 136 % of control.
`CCN(CC)CCOCCO`: the survivor count is reported as 0 of 10 on day 28 under setting [1], 0 of 10 on day 28 under setting [2] and 0 of 10 on day 28 under setting [3].
With `CCCCCCCCCCCCSC1=C(Cl)C(=O)C(OC)=C(OC)C1=O`, the T/C runs as follows: (T/C endpoint: median tumor weight (est.), dose: 12.5 mg/kg/injection, schedule: Q07DX005 (ip), vehicle: saline with Tween-80, evaluated on day 30) 137 % of control; (T/C endpoint: median tumor weight (est.), dose: 50.0 mg/kg/injection, schedule: Q07DX005 (ip), vehicle: saline with Tween-80, evaluated on day 30) 135 % of control [9 of 10 alive on day 30]. The survivor count is recorded as 5 of 10 on day 30 (T/C endpoint: median tumor weight (est.), dose: 200.0 mg/kg/injection, schedule: Q07DX005 (ip), vehicle: saline with Tween-80) and 2 of 10 on day 30 (T/C endpoint: median tumor weight (est.), dose: 400.0 mg/kg/injection, schedule: Q07DX005 (ip), vehicle: saline with Tween-80).
